# From PubChem BioAssay AID2576 (National Center for Advancing Translational Sciences (NCATS), 2010)
# Amino acid sequences for entries named in this document (tags omitted).
# UniProt P14618, whole entry, looked up: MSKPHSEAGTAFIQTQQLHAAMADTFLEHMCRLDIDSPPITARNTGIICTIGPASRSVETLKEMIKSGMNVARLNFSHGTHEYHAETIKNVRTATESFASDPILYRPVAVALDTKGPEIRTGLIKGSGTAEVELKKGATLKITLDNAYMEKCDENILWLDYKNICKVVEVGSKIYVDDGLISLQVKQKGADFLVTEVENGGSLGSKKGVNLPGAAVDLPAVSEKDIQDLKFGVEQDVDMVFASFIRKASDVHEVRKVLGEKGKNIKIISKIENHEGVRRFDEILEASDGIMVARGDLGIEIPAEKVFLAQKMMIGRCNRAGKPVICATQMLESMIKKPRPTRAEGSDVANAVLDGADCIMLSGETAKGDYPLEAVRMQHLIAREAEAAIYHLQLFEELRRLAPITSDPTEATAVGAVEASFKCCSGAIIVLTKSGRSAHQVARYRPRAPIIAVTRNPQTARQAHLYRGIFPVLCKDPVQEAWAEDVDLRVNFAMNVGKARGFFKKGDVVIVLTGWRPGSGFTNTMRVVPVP
# Inconclusive results, whose numbers are uncertain, are shown with a selection of clear calls. Potencies of inconclusive entries are doubtful fits and often do not repeat. Calls of active or inactive are those of the source. Calls come from the whole dose curve; as a rule, active = well fitted activation curve with a large enough effect; inconclusive = small, poorly fitted or top-dose-only effect, or effect the other way; inactive = flat fitted curve, though single readings scatter.
# Target: Pyruvate kinase PKM (Homo sapiens) (UniProt P14618)
# Test: Secondary LDH Assay for Activators of Human Pyruvate Kinase M2 isoform: for Probe SAR
# Conditions: purified hPK-M2, LDH-coupled NADH fluorescence kinetic; series mostly up to 58.4 µM
# Excerpt: NIH Chemical Genomics Center [NCGC] Matthew G. Vander Heiden, M.D., Ph.D. [Harvard Medical School, 77 Avenue Louis Pasteur, Boston, MA 02115] NCGC Assay Overview: Human pyruvate kinase muscle 2 (hPK-M2)enzyme was supplied as a highly purified (>95% pure) preparation from Harvard Medical School and a secondary assay was used to evaluate compounds. This assay couples the formation of pyruvate from hPK-M2 using lactate dehydrogenase (LDH) and NADH. The depletion of NADH is followed in a fluorescent-based kinetic assay that follows the formation of pyruvate to lactate, as catalyzed LDH (described by Hannaert et al., 2002)1 Pyruvate kinase substrates, PEP and ADP, were present in the assay at 0.1 mM and 4 mM respectively. In this kinetic assay initial rates were determined by following the fluorescence of NADH depletion.
# NCGC Assay Protocol Summary: Three uL of substrate mix (final concentration, 50 mM Tris-Cl pH 8.0, 200 mM KCl, 15 mM MgCl2, 0.1 mM PEP, 4.0 mM ADP, and 0.2 mM NADH) was dispensed into black-solid 1536 well plates. 23 nL of compounds were delivered by a pin tool and 1 uL of enzyme mix (final concentrations, 10 nM hPK-M2 and 1 uM of LDH) was added. Plates were immediately placed in ViewLux (Perkin Elmer) and NADH fluorescence was determined at 30 second exposure intervals for between 3 and 6 minutes. Data were normalized to the uninhibited and EC100 activation using known activators such as fructose-bis-phosphate.
row,SMILES,Potency
1,Cc1ccc(NS(=O)(=O)c2ccc3c(c2)n(C)c(=O)n3C)cc1C,"inconclusive: 1.16 µM [rising, full curve]"
2,Cc1ccc(NS(=O)(=O)c2cccc(Cl)c2)cc1C,inactive
3,O=C1CCc2cc(S(=O)(=O)Nc3ccc(F)cc3)ccc2N1,inactive
4,CCNc1cccc(S(=O)(=O)N2CCN(S(=O)(=O)c3ccc4c(c3)OCCO4)CC2)c1,"inconclusive: 23.1 µM [rising, partial curve, poor fit]"
5,O=C1CCc2cc(S(=O)(=O)Nc3ccc(Cl)cc3)ccc2N1,"inconclusive: 3.66 µM [rising, full curve]"
6,COc1cccc(NS(=O)(=O)c2ccc3c(c2)CCC(=O)N3)c1,"inconclusive: 5.8 µM [rising, partial curve]"
7,Cc1ccc(NS(=O)(=O)c2ccc3c(c2)NC(=O)CO3)cc1C,"inconclusive: 16.3 µM [rising, partial curve]"
8,Cc1ccc(NS(=O)(=O)c2cc3c(cc2Cl)CCC(=O)N3)cc1C,active: 0.461 µM
9,Cc1ccccc1Nc1c(-c2ccccc2)nc2cccc(C)n12,"inconclusive: 1.46 µM [inhibitor, full curve, poor fit]"
10,Cc1ccc(NS(=O)(=O)c2cc3c(cc2N(C)C)CCC(=O)N3)cc1C,active: 1.46 µM
11,Nc1cc(S(=O)(=O)N2CCN(S(=O)(=O)c3ccc4c(c3)OCCO4)CC2)ccn1,inactive
12,O=C1CCc2cc(S(=O)(=O)Nc3cccc(Cl)c3)ccc2N1,"inconclusive: 0.919 µM [rising, full curve]"
13,O=C1CCc2cc(S(=O)(=O)Nc3cccc(F)c3)ccc2N1,"inconclusive: 5.8 µM [rising, full curve]"
14,Cc1ccc2nc(-c3ccco3)c(Nc3ccccc3)n2c1,"inconclusive: 11.6 µM [inhibitor, partial curve]"
15,Cc1ccc(NS(=O)(=O)c2cc3c(cc2N2CCC2)NC(=O)CC3)cc1C,"inconclusive: 0.291 µM [rising, full curve]"
16,Cc1ccc(Nc2c(-c3ccsc3)nc3c(C)cccn23)cc1,"inconclusive: 11.6 µM [inhibitor, full curve]"
17,COc1cccc(Cn2ncc3c4sc(SC)cc4n(C)c3c2=O)c1,active: 0.206 µM
18,O=C1c2ccccc2C(=O)N1c1cccnc1,"inconclusive: 32.6 µM [rising, single point]"
19,O=C1CCc2cc(S(=O)(=O)Nc3ccccc3F)ccc2N1,"inconclusive: 23.1 µM [rising, partial curve]"
20,Cc1ccc(NS(=O)(=O)c2cc3c(cc2Cl)NC(=O)C3)cc1C,"inconclusive: 3.66 µM [rising, partial curve]"

# Eleven entries already listed, sorted by length of the SMILES, smallest number first:
row,SMILES,Potency
2,Cc1ccc(NS(=O)(=O)c2cccc(Cl)c2)cc1C,inactive
9,Cc1ccccc1Nc1c(-c2ccccc2)nc2cccc(C)n12,"inconclusive: 1.46 µM [inhibitor, full curve, poor fit]"
13,O=C1CCc2cc(S(=O)(=O)Nc3cccc(F)c3)ccc2N1,"inconclusive: 5.8 µM [rising, full curve]"
17,COc1cccc(Cn2ncc3c4sc(SC)cc4n(C)c3c2=O)c1,active: 0.206 µM
6,COc1cccc(NS(=O)(=O)c2ccc3c(c2)CCC(=O)N3)c1,"inconclusive: 5.8 µM [rising, partial curve]"
8,Cc1ccc(NS(=O)(=O)c2cc3c(cc2Cl)CCC(=O)N3)cc1C,active: 0.461 µM
1,Cc1ccc(NS(=O)(=O)c2ccc3c(c2)n(C)c(=O)n3C)cc1C,"inconclusive: 1.16 µM [rising, full curve]"
10,Cc1ccc(NS(=O)(=O)c2cc3c(cc2N(C)C)CCC(=O)N3)cc1C,active: 1.46 µM
15,Cc1ccc(NS(=O)(=O)c2cc3c(cc2N2CCC2)NC(=O)CC3)cc1C,"inconclusive: 0.291 µM [rising, full curve]"
11,Nc1cc(S(=O)(=O)N2CCN(S(=O)(=O)c3ccc4c(c3)OCCO4)CC2)ccn1,inactive
4,CCNc1cccc(S(=O)(=O)N2CCN(S(=O)(=O)c3ccc4c(c3)OCCO4)CC2)c1,"inconclusive: 23.1 µM [rising, partial curve, poor fit]"

# Continued:

row,SMILES,Potency
1,CSc1cc2c(s1)c1cnn(Cc3cccc(N)c3)c(=O)c1n2C,active: 0.058 µM
2,Cc1ccc(-c2nc3ccccn3c2Nc2ccc(F)cc2)o1,"inconclusive: 16.3 µM [inhibitor, partial curve]"
3,Cc1ccc(NS(=O)(=O)c2cc3c(cc2-c2ccco2)NC(=O)CO3)cc1C,"inconclusive: 14.6 µM [rising, partial curve]"
4,Cc1ccc(NS(=O)(=O)c2ccc(N3CCCC3=O)cc2)cc1C,inactive
5,Cc1ccc(NS(=O)(=O)c2ccc3[nH]c(=O)[nH]c3c2)cc1C,"inconclusive: 20.6 µM [rising, partial curve]"
6,Cc1ccc(NS(=O)(=O)c2ccc3c(c2)CC(=O)N3)cc1C,"inconclusive: 5.8 µM [rising, partial curve]"
7,Cc1ccc(Nc2c(-c3ccsc3)nc3cccc(C)n23)cc1,"inconclusive: 11.6 µM [inhibitor, partial curve]"
8,Cc1ccn2c(NC3CCCCC3)c(-c3ccc(C)o3)nc2c1,inactive
9,Cc1ccc2nc(-c3ccc(C)o3)c(Nc3ccc(F)cc3)n2c1,"inconclusive: 20.6 µM [inhibitor, partial curve]"
10,O=C1c2ccccc2C(=O)N1c1ccccc1O,inactive
11,Cc1ccc(NS(=O)(=O)c2cccc(C(=O)O)c2)cc1C,inactive
12,Cc1ccc2nc(-c3ccc(C)o3)c(Nc3ccc(Cl)cc3)n2c1,"inconclusive: 20.6 µM [inhibitor, partial curve, poor fit]"
13,Cc1ccc(NS(=O)(=O)c2cc3c(cc2N2CCCCC2)NC(=O)CC3)cc1C,inactive
14,CSc1cc2c(s1)c1cnn(Cc3cccc(O)c3)c(=O)c1n2C,active: 0.206 µM
15,Cc1ccc(NS(=O)(=O)c2cc3c(cc2-c2ccccc2)NC(=O)CO3)cc1C,inactive
16,Cc1ccc(NS(=O)(=O)c2cc3c(cc2C)OCC(=O)N3)cc1C,"inconclusive: 14.6 µM [rising, partial curve]"
17,Cc1ccc(Nc2c(-c3ccc(C)s3)nc3ccccn23)cc1,"inconclusive: 10.3 µM [inhibitor, full curve]"
18,CC(=O)N1c2ccc(S(=O)(=O)Nc3ccc(C)c(C)c3)cc2CC1C (centres undefined),inactive
19,Cc1ccc(NS(=O)(=O)c2cc3c(cc2Cl)NC(=O)CO3)cc1C,active: 0.819 µM
